Experimental data as given in PMC6921979.
Results are given in words; binding and its absence hold for the method and conditions named. In cells and extracts the contact can be indirect. Here binding means that the protein was enriched with, or labelled near, the bait; the list need not be complete. Sequences can lack the tags named with a protein.

B1: Inter-alpha-trypsin inhibitor heavy chain H2 (protein, UniProt P19823 55-702)
chain: SLPGESEEMMEEVDQVTLYSYKVQSTITSRMATTMIQSKVVNNSPQPQNVVFDVQIPKGAFISNFSMTVDGKTFRSSIKEKTVGRALYAQARAKGKTAGLVRSSALDMENFRTEVNVLPGAKVQFELHYQEVKWRKLGSYEHRIYLQPGRLAKHLEVDVWVIEPQGLRFLHVPDTFEGHFDGVPVISKGQQKAHVSFKPTVAQQRICPNCRETAVDGELVVLYDVKREEKAGELEVFNGYFVHFFAPDNLDPIPKNILFVIDVSGSMWGVKMKQTVEAMKTILDDLRAEDHFSVIDFNQNIRTWRNDLISATKTQVADAKRYIEKIQPSGGTNINEALLRAIFILNEANNLGLLDPNSVSLIILVSDGDPTVGELKLSKIQKNVKENIQDNISLFSLGMGFDVDYDFLKRLSNENHGIAQRIYGNQDTSSQLKKFYNQVSTPLLRNVQFNYPHTSVTDVTQNNFHNYFGGSEIVVAGKFDPAKLDQIESVITATSANTQLVLETLAQMDDLQDFLSKDKHADPDFTRKLWAYLTINQLLAERSLAPTAAAKRRITRSILQMSLDHHIVTPLTSLVIENEAGDERMLADAPPQDPSCCSGALYYGSKVVPDSTPSWANPSPTPVISMLAQGSQVLESTPPPHVMRVEND
B2: Protein AMBP (protein, UniProt P02760 20-352)
chain: GPVPTPPDNIQVQENFNISRIYGKWYNLAIGSTCPWLKKIMDRMTVSTLVLGEGATEAEISMTSTRWRKGVCEETSGAYEKTDTDGKFLYHKSKWNITMESYVVHTNYDEYAIFLTKKFSRHHGPTITAKLYGRAPQLRETLLQDFRVVAQGVGIPEDSIFTMADRGECVPGEQEPEPILIPRVRRAVLPQEEEGSGGGQLVTEVTKKEDSCQLGYSAGPCMGMTSRYFYNGTSMACETFQYGGCMGNGNNFVTEKECLQTCRTVAACNLPIVRGPCRAFIQLWAFDAVKGKCVLFPYGGCQGNGNKFYSEKECREYCGVPGDGDEELLRFSN
B3: Alpha-2-macroglobulin (protein, UniProt P01023 24-1474)
chain: SVSGKPQYMVLVPSLLHTETTEKGCVLLSYLNETVTVSASLESVRGNRSLFTDLEAENDVLHCVAFAVPKSSSNEEVMFLTVQVKGPTQEFKKRTTVMVKNEDSLVFVQTDKSIYKPGQTVKFRVVSMDENFHPLNELIPLVYIQDPKGNRIAQWQSFQLEGGLKQFSFPLSSEPFQGSYKVVVQKKSGGRTEHPFTVEEFVLPKFEVQVTVPKIITILEEEMNVSVCGLYTYGKPVPGHVTVSICRKYSDASDCHGEDSQAFCEKFSGQLNSHGCFYQQVKTKVFQLKRKEYEMKLHTEAQIQEEGTVVELTGRQSSEITRTITKLSFVKVDSHFRQGIPFFGQVRLVDGKGVPIPNKVIFIRGNEANYYSNATTDEHGLVQFSINTTNVMGTSLTVRVNYKDRSPCYGYQWVSEEHEEAHHTAYLVFSPSKSFVHLEPMSHELPCGHTQTVQAHYILNGGTLLGLKKLSFYYLIMAKGGIVRTGTHGLLVKQEDMKGHFSISIPVKSDIAPVARLLIYAVLPTGDVIGDSAKYDVENCLANKVDLSFSPSQSLPASHAHLRVTAAPQSVCALRAVDQSVLLMKPDAELSASSVYNLLPEKDLTGFPGPLNDQDNEDCINRHNVYINGITYTPVSSTNEKDMYSFLEDMGLKAFTNSKIRKPKMCPQLQQYEMHGPEGLRVGFYESDVMGRGHARLVHVEEPHTETVRKYFPETWIWDLVVVNSAGVAEVGVTVPDTITEWKAGAFCLSEDAGLGISSTASLRAFQPFFVELTMPYSVIRGEAFTLKATVLNYLPKCIRVSVQLEASPAFLAVPVEKEQAPHCICANGRQTVSWAVTPKSLGNVNFTVSAEALESQELCGTEVPSVPEHGRKDTVIKPLLVEPEGLEKETTFNSLLCPSGGEVSEELSLKLPPNVVEESARASVSVLGDILGSAMQNTQNLLQMPYGCGEQNMVLFAPNIYVLDYLNETQQLTPEIKSKAIGYLNTGYQRQLNYKHYDGSYSTFGERYGRNQGNTWLTAFVLKTFAQARAYIFIDEAHITQALIWLSQRQKDNGCFRSSGSLLNNAIKGGVEDEVTLSAYITIALLEIPLTVTHPVVRNALFCLESAWKTAQEGDHGSHVYTKALLAYAFALAGNQDKRKEVLKSLNEEAVKKDNSVHWERPQKPKAPVGHFYEPQAPSAEVEMTSYVLLAYLTAQPAPTSEDLTSATNIVKWITKQQNAQGGFSSTQDTVVALHALSKYGAATFTRTGKAAQVTIQSSGTFSSKFQVDNNNRLLLQQVSLPELPGEYSMKVTGEGCVYLQTSLKYNILPEKEEFPFALGVQTLPQTCDEPKAHTSFQISLSVSYTGSRSASNMAIVDVKMVSGFIPLKPTVKMLERSNHVSRTEVSSNHVLIYLDKVSNQTLSLFFTVLQDVPVRDLKPAIVKVYDYYETDEFAIAEYNAPCSKDLGNA
B4: Prolactin-inducible protein (protein, UniProt P12273 29-146)
chain: QDNTRKIIIKNFDIPKSVRPNDEVTAVLAVQTELKECMVVKTYLISSIPLQGAFNYKYTACLCDDNPKTFYWDFYTNRTVQIAAVVDVIRELGICPDDAAVIPIKNNRFYTIEILKVE
B5: Vitamin K-dependent protein S (protein, UniProt P07225 42-676)
chain: ANSLLEETKQGNLERECIEELCNKEEAREVFENDPETDYFYPKYLVCLRSFQTGLFTAARQSTNAYPDLRSCVNAIPDQCSPLPCNEDGYMSCKDGKASFTCTCKPGWQGEKCEFDINECKDPSNINGGCSQICDNTPGSYHCSCKNGFVMLSNKKDCKDVDECSLKPSICGTAVCKNIPGDFECECPEGYRYNLKSKSCEDIDECSENMCAQLCVNYPGGYTCYCDGKKGFKLAQDQKSCEVVSVCLPLNLDTKYELLYLAEQFAGVVLYLKFRLPEISRFSAEFDFRTYDSEGVILYAESIDHSAWLLIALRGGKIEVQLKNEHTSKITTGGDVINNGLWNMVSVEELEHSISIKIAKEAVMDINKPGPLFKPENGLLETKVYFAGFPRKVESELIKPINPRLDGCIRSWNLMKQGASGIKEIIQEKQNKHCLVTVEKGSYYPGSGIAQFHIDYNNVSSAEGWHVNVTLNIRPSTGTGVMLALVSGNNTVPFAVSLVDSTSEKSQDILLSVENTVIYRIQALSLCSDQQSHLEFRVNRNNLELSTPLKIETISHEDLQRQLAVLDKAMKAKVATYLGGLPDVPFSATPVNAFYNGCMEVNINGVQLDLDEAISKHNDIRAHSCPSVWKKTKNS
B6: Arachidonate 12-lipoxygenase, 12R-type (protein, UniProt O75342 1-701)
chain: MATYKVRVATGTDLLSGTRDSISLTIVGTQGESHKQLLNHFGRDFATGAVGQYTVQCPQDLGELIIIRLHKERYAFFPKDPWYCNYVQICAPNGRIYHFPAYQWMDGYETLALREATGKTTADDSLPVLLEHRKEEIRAKQDFYHWRVFLPGLPSYVHIPSYRPPVRRHRNPNRPEWNGYIPGFPILINFKATKFLNLNLRYSFLKTASFFVRLGPMALAFKVRGLLDCKHSWKRLKDIRKIFPGKKSVVSEYVAEHWAEDTFFGYQYLNGVNPGLIRRCTRIPDKFPVTDDMVAPFLGEGTCLQAELEKGNIYLADYRIMEGIPTVELSGRKQHHCAPLCLLHFGPEGKMMPIAIQLSQTPGPDCPIFLPSDSEWDWLLAKTWVRYAEFYSHEAIAHLLETHLIAEAFCLALLRNLPMCHPLYKLLIPHTRYTVQINSIGRAVLLNEGGLSAKGMSLGVEGFAGVMVRALSELTYDSLYLPNDFVERGVQDLPGYYYRDDSLAVWNALEKYVTEIITYYYPSDAAVEGDPELQSWVQEIFKECLLGRESSGFPRCLRTVPELIRYVTIVIYTCSAKHAAVNTGQMEFTAWMPNFPASMRNPPIQTKGLTTLETFMDTLPDVKTTCITLLVLWTLSREPDDRRPLGHFPDIHFVEEAPRRSIEAFRQRLNQISHDIRQRNKCLPIPYYYLDPVLIENSISI
B7: Ceruloplasmin (protein, UniProt P00450 20-1065)
chain: KEKHYYIGIIETTWDYASDHGEKKLISVDTEHSNIYLQNGPDRIGRLYKKALYLQYTDETFRTTIEKPVWLGFLGPIIKAETGDKVYVHLKNLASRPYTFHSHGITYYKEHEGAIYPDNTTDFQRADDKVYPGEQYTYMLLATEEQSPGEGDGNCVTRIYHSHIDAPKDIASGLIGPLIICKKDSLDKEKEKHIDREFVVMFSVVDENFSWYLEDNIKTYCSEPEKVDKDNEDFQESNRMYSVNGYTFGSLPGLSMCAEDRVKWYLFGMGNEVDVHAAFFHGQALTNKNYRIDTINLFPATLFDAYMVAQNPGEWMLSCQNLNHLKAGLQAFFQVQECNKSSSKDNIRGKHVRHYYIAAEEIIWNYAPSGIDIFTKENLTAPGSDSAVFFEQGTTRIGGSYKKLVYREYTDASFTNRKERGPEEEHLGILGPVIWAEVGDTIRVTFHNKGAYPLSIEPIGVRFNKNNEGTYYSPNYNPQSRSVPPSASHVAPTETFTYEWTVPKEVGPTNADPVCLAKMYYSAVEPTKDIFTGLIGPMKICKKGSLHANGRQKDVDKEFYLFPTVFDENESLLLEDNIRMFTTAPDQVDKEDEDFQESNKMHSMNGFMYGNQPGLTMCKGDSVVWYLFSAGNEADVHGIYFSGNTYLWRGERRDTANLFPQTSLTLHMWPDTEGTFNVECLTTDHYTGGMKQKYTVNQCRRQSEDSTFYLGERTYYIAAVEVEWDYSPQREWEKELHHLQEQNVSNAFLDKGEFYIGSKYKKVVYRQYTDSTFRVPVERKAEEEHLGILGPQLHADVGDKVKIIFKNMATRPYSIHAHGVQTESSTVTPTLPGETLTYVWKIPERSGAGTEDSACIPWAYYSTVDQVKDLYSGLIGPLIVCRRPYLKVFNPRRKLEFALLFLVFDENESWYLDDNIKTYSDHPEKVNKDDEEFIESNKMHAINGRMFGNLQGLTMHVGDEVNWYLMGMGNEIDLHTVHFHGHSFQYKHRGVYSSDVFDIFPGTYQTLEMFPRTPGIWLLHCHVTDHIHAGMETTYTVLQNEDTKSG
B8: Short-chain dehydrogenase/reductase family 9C member 7 (protein, UniProt Q8NEX9 1-313)
chain: MAALTDLSFMYRWFKNCNLVGNLSEKYVFITGCDSGFGNLLAKQLVDRGMQVLAACFTEEGSQKLQRDTSYRLQTTLLDVTKSESIKAAAQWVRDKVGEQGLWALVNNAGVGLPSGPNEWLTKDDFVKVINVNLVGLIEVTLHMLPMVKRARGRVVNMSSSGGRVAVIGGGYCVSKFGVEAFSDSIRRELYYFGVKVCIIEPGNYRTAILGKENLESRMRKLWERLPQETRDSYGEDYFRIYTDKLKNIMQVAEPRVRDVINSMEHAIVSRSPRIRYNPGLDAKLLYIPLAKLPTPVTDFILSRYLPRPADSV
B9: Corneodesmosin (protein, UniProt Q15517 33-529)
chain: KSIGTFSDPCKDPTRITSPNDPCLTGKGDSSGFSSYSGSSSSGSSISSARSSGGGSSGSSSGSSIAQGGSAGSFKPGTGYSQVSYSSGSGSSLQGASGSSQLGSSSSHSGNSGSHSGSSSSHSSSSSSFQFSSSSFQVGNGSALPTNDNSYRGILNPSQPGQSSSSSQTFGVSSSGQSVSSNQRPCSSDIPDSPCSGGPIVSHSGPYIPSSHSVSGGQRPVVVVVDQHGSGAPGVVQGPPCSNGGLPGKPCPPITSVDKSYGGYEVVGGSSDSYLVPGMTYSKGKIYPVGYFTKENPVKGSPGVPSFAAGPPISEGKYFSSNPIIPSQSAASSAIAFQPVGTGGVQLCGGGSTGSKGPCSPSSSRVPSSSSISSSSGLPYHPCGSASQSPCSPPGTGSFSSSSSSQSSGKIILQPCGSKSSSSGHPCMSVSSLTLTGGPDGSPHPDPSAGAKPCGSSSAGKIPCRSIRDILAQVKPLGPQLADPEVFLPQGELLNSP

Each binder was assayed against Complement factor C3a/C3 (human (endogenous in serum)) (assay: affinity purification with mass spectrometry; precleared human serum recirculated at 4 °C over 3F7E2-mAb coupled to cyanogen bromide Sepharose; washes with Triton X-100, sodium deoxycholate and 0.5 M NaCl at pH 8.0 and 9.0; elution with 50 mM TEA pH 11.3; reducing SDS-PAGE, whole lane to nanoLC-MS; haptoglobin column (3A8-mAb) as control; hits: >10-fold enriched, p < 0.05, three technical replicates).
For B1, the binding was “binds”. B2 was tested, and the binding was “binds”. In the case of B3, the binding is reported as “binds”. For B4, the binding was “binds”. For B5, the binding was “binds”. With B6 the binding was “binds”. B7 was tested, and the binding was “binds”. With B8 the binding was “binds”. B9 was tested, and the binding was “binds”.
